# Values quoted from earlier work in paper PMC9229919, “4-Aminoquinoline-Based Adamantanes as Potential Anticholinesterase Agents in Symptomatic Treatment of Alzheimer’s Disease” (Pharmaceutics, 2022).
# Settings: standard compounds of the interpolation method; cited from earlier work
compound,measurement,value
O=C1Nc2ccc(Cl)cc2C(c2ccccc2)=NC1O (centres unmarked) [oksazepam],pKa1,10.9
same,pKa2,1.55
